PubChem BioAssay AID504744 | Drosophila RNAi Screening Center | 2011
Purpose: 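Find genes whose loss alters insulin-driven dAkt phosphorylation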 (primary screen). System: Drosophila Kc167 cells. Knock-down reagent: long dsRNA against Drosophila genes, 250 ng dsRNA per well of a 384-well plate. Timing: 3 days of knock-down, then overnight serum-free starvation before stimulation. Conditions: bovine insulin at 387 nM for 10 minutes after 12 h without serum. Detection: 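In-cell antibody fluorescence for phospho-dAkt in each well over DNA-dye signal, with log2 residuals expressed as z-scores adjusted for cell count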. Active means: 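Hit in the insulin screen when the two-replicate mean z-score is more extreme than plus or minus 2.5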.
The deposit covers about 23,000 reagents; below is a random part of those that have a named target and a result. Over the whole deposit, 98 (0.43%) are marked active. 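Only hit calls are given; the phospho-dAkt signals, z-scores and hit direction were not deposited.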 Reagents against one gene are numbered here. Names joined by + are all predicted targets of the reagent.

Which result is listed for Vps29?
activity call: inactive

What is on record for CG12934?
activity call: inactive

What is on record for CG17028?
activity call: inactive

What did the screen give for CG15631?
activity call: inactive

What is on record for mRpL4?
activity call: inactive

With Nup153, what was measured?
activity call: inactive

What did the screen give for Gem4b + Gem4c + Glos?
activity call: inactive

What did the screen give for M7BP?
activity call: inactive

With ogre, how do the results read?
activity call: inactive

What is on record for mRpS28?
activity call: inactive

With CG13230, what does the deposit list?
activity call: inactive

For CG18476, what was measured?
activity call: inactive

For CG1896, what was measured?
activity call: inactive

For osp #1, how do the results read?
activity call: inactive

With osp #2, what was measured?
activity call: inactive

How did the screen score Nep1 #1?
activity call: inactive

What is on record for Nep1 #2?
activity call: inactive

With SmydA-2, what was measured?
activity call: inactive

For CG5126, how do the results read?
activity call: inactive

With ari-1 #1, what does the deposit list?
activity call: inactive

With ari-1 #2, what does the deposit list?
activity call: inactive

Which result is listed for spn-E?
activity call: inactive

With CG3164, what was measured?
activity call: inactive

For CG9162 (retired record), what was measured?
activity call: inactive

With Mvl, how do the results read?
activity call: inactive

With CG13708, what was measured?
activity call: inactive

For Cpr49Aa, how do the results read?
activity call: inactive

With CG10984, what does the deposit list?
activity call: inactive

What did the screen give for MAN1?
activity call: inactive

For CG12502, what was measured?
activity call: inactive

For CG10336, how do the results read?
activity call: inactive

For PCB, how do the results read?
activity call: inactive

For CG18343, what was measured?
activity call: inactive

For Or2a, what was measured?
activity call: inactive

Which result is listed for SERCA?
activity call: inactive

With CG31189, what was measured?
activity call: inactive

How did the screen score Ets97D?
activity call: inactive

For stw #1, what does the deposit list?
activity call: inactive

With stw #2, how do the results read?
activity call: inactive

Which result is listed for stw #3?
activity call: inactive
